# Laboratory results reported in article PMC10798890.
# The chains behind the UniProt entries cited, without tags or fusion partners. Where a name states a change or a piece, a line headed by the entry shows the natural chain unless it says otherwise.
# UniProt P03372: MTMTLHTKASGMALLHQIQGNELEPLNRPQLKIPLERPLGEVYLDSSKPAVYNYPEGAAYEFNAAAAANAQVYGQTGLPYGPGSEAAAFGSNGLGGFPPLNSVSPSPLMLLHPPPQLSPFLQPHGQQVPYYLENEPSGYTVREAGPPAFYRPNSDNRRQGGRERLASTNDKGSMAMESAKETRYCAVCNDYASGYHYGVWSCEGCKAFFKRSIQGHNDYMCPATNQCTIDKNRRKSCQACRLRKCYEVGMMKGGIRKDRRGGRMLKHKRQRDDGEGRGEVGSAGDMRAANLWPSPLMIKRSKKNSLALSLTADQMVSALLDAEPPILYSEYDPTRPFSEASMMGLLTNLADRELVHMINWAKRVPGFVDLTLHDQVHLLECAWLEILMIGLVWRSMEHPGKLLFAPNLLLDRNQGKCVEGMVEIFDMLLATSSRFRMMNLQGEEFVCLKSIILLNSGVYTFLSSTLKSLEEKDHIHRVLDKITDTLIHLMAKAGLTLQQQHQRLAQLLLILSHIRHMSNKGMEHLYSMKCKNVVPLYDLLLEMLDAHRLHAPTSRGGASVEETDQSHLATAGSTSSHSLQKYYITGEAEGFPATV
# UniProt O00487: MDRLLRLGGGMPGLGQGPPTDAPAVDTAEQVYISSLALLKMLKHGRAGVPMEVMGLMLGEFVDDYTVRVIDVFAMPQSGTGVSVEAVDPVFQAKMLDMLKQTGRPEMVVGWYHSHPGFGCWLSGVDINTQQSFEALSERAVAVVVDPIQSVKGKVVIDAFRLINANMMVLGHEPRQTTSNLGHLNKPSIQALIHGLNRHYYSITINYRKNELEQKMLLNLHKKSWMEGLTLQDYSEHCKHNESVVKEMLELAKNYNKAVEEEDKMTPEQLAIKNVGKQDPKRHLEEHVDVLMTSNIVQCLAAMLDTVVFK
# No constants are given. Whether binding was seen depends on the method and setting. In cells and extracts the contact can be indirect. Some results given as binding are weak or reduced against the parent protein; the word gives no strength.
# Tests used:
# [1] = molecular target: ERα (human (endogenous in MCF-7)) (UniProt P03372); test: co-IP; endogenous proteins; lysates of MCF-7 cells precipitated with anti-ERα or anti-PSMD14 antibodies and protein A/G agarose at 4 °C overnight, precipitates examined by immunoblotting
# [2] = molecular target: Myc-PSMD14 (human) (UniProt O00487); test: co-IP; HEK-293T cotransfected with 2 µg PSMD14 plasmid and full-length HA-ERα or mutant ERα; 10 μM MG132 for 6 h; NP-40 lysis buffer; co-IP with anti-Myc antibody, detection with anti-HA antibody
# [3] = molecular target: Flag-ERα (UniProt P03372); test: co-IP; HEK-293T cotransfected with 2 µg ERα plasmid and full-length GFP-PSMD14 or its mutants; 10 μM MG132 for 6 h; NP-40 lysis buffer; co-IP with anti-Flag antibody, detection with anti-GFP antibody
Substance,binding [2],binding [3],other results
"PSMD14 (Proteasome 26S Subunit, Non-ATPase 14) (from UniProt O00487 1-310) (enzyme)",,,binding [1]: binds
HA-ERα (1–180) (from UniProt P03372 1-180) (domain or fragment),binds,,
GFP-PSMD14 (1–172) (from UniProt O00487 1-172) (domain or fragment),,binds,

# Now from value to substance, other results behind:
binding [2],binding [3],Substance,other results
binds,,full-length HA-ERα (from UniProt P03372 1-595) (receptor),
,binds,full-length GFP-PSMD14 (from UniProt O00487 1-310) (enzyme),
